Data as given in PubChem BioAssay AID504793 (Drosophila RNAi Screening Center, 2011).
The screen tested about 23,000 reagents; shown is an unselected part of those that have a named target and a result. Over the whole deposit, 62 (0.27%) got an active call. 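Calls come from follow-up tests whose scores are not deposited, so confirmed genes may have low counts here; counts are not normalised per plate.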 Raw values are not corrected between plates.

Test: 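Genes required for cells to halt at G2/M after double-strand DNA breaks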 (primary screen)
Cell system: Drosophila S2R+ cells
Knock-down reagent: long dsRNA against Drosophila genes, about 0.25 µg dsRNA per well
Timing: 4 days of dsRNA, then 4 hours of drug before read-out
Challenge: doxorubicin 0.5 µM for 4 hours to cause double-strand breaks, in cells also given a low, harmless dose of dsRNA against nbs to sensitise the assay
Measured: 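Per-well count of mitotic cells stained for phospho-histone H3 after doxorubicin exposure, used as mitotic index; counts are raw and not normalised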
Scale: mitotic cells: higher = more cells in mitosis, weaker G2 arrest
Call rule: 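Genes are called active only when high mitotic counts were reproduced with independent dsRNAs and mitosis was checked for delay without damage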
Meaning of the calls: active = confirmed in follow-up tests; inactive = not confirmed

gene knocked down | dsRNA | mitotic cells, replicate 1 | mitotic cells, replicate 2 | call
CG6660 | DRSC16087 | 8 | – | inactive
miple1 | DRSC08722 | – | – | inactive
dnk | DRSC16933 | 7 | – | inactive
dnk | DRSC29240 | 1 | – | inactive
mura | DRSC23145 | 17 | – | inactive
mura | DRSC26645 | 4 | – | inactive
Ir94h | DRSC15232 | 5 | – | inactive
CG12963 | DRSC06265 | 3 | – | inactive
Mst36Fa | DRSC21564 | 13 | – | inactive
Mst36Fa | DRSC26339 | 6 | – | inactive
RhoGEF3 | DRSC08351 | 4 | – | inactive
RhoGEF3 | DRSC08352 | 6 | – | inactive
CG3081 | DRSC18571 | 12 | – | inactive
CG4301 | DRSC19886 | 5 | – | inactive
CG32095 | DRSC22615 | 6 | – | inactive
CG7741 | DRSC07035 | 7 | – | inactive
CG8010 | DRSC20072 | 9 | – | inactive
CG8010 | DRSC26277 | 2 | – | inactive
Glut3 | DRSC16681 | 3 | – | inactive
Glut3 | DRSC26249 | 3 | – | inactive
NimB5 | DRSC01885 | 6 | – | inactive
CG30466 | DRSC05556 | 5 | – | inactive
CG8379 | DRSC16414 | 5 | – | inactive
DopEcR | DRSC08529 | 2 | – | inactive
fru | DRSC16953 | 7 | 2 | inactive
fru | DRSC24960 | 6 | – | inactive
CG14227 | DRSC19584 | 14 | – | inactive
CG14227 | DRSC29213 | 8 | – | inactive
CG32022 | DRSC09678 | 7 | – | inactive
Golgin245 | DRSC04374 | 8 | – | inactive
Golgin245 | DRSC22012 | 7 | – | inactive
Golgin245 | DRSC30015 | 13 | – | inactive
UbcE2M | DRSC10828 | 4 | – | inactive
CG18766 | DRSC15936 | 8 | – | inactive
CG18766 | DRSC25739 | 6 | – | inactive
Arl2 | DRSC14117 | 4 | – | inactive
Eaf | DRSC05050 | 18 | – | inactive
Eaf | DRSC06052 | 8 | – | inactive
Eaf | DRSC22028 | 14 | – | inactive
Eaf | DRSC27471 | 6 | – | inactive
CG42724 | DRSC12567 | 2 | – | inactive
CG42724 | DRSC22275 | 7 | – | inactive
CG42724 | DRSC25154 | 2 | – | inactive
CG42724 | DRSC30081 | 10 | – | inactive
CG31102 | DRSC14260 | 6 | – | inactive
CG31102 | DRSC26350 | 7 | – | inactive
psh | DRSC19990 | 11 | – | inactive
psh | DRSC28534 | 5 | – | inactive
CG11269 | DRSC04094 | 6 | – | inactive
ICA69 | DRSC11621 | 6 | – | inactive
dre4 | DRSC08714 | 9 | – | inactive
scrt | DRSC23001 | 18 | – | inactive
scrt | DRSC25792 | 4 | – | inactive
CG16974 | DRSC02551 | 4 | – | inactive
CG16974 | DRSC28759 | 6 | – | inactive
CG4592 | DRSC02761 | 5 | – | inactive
so | DRSC23096 | 6 | – | inactive
Pex5 | DRSC18552 | 13 | – | inactive
Pex5 | DRSC26136 | 4 | – | inactive
CG2772 | DRSC00530 | 4 | – | inactive
CG2772 | DRSC27114 | 4 | – | inactive
CG3270 | DRSC04988 | 6 | – | inactive
Nasp | DRSC27430 | 6 | – | inactive

Look-ups from above.
Under “call”, CG30466 [DRSC05556] reads inactive
psh [DRSC19990], call → inactive
CG42724 [DRSC22275], call: inactive
mura [DRSC26645], call → inactive
Value of Golgin245 [DRSC22012] under “call”: inactive
CG18766 [DRSC15936], call: inactive

More results:
gene knocked down | dsRNA | mitotic cells, replicate 1 | mitotic cells, replicate 2 | call
CG33268 | DRSC10143 | 3 | – | inactive
Ravus | DRSC15126 | 3 | – | inactive
CG15561 | DRSC15100 | 15 | – | inactive
CG15561 | DRSC24085 | 11 | – | inactive
TP53INP | DRSC08178 | 9 | – | inactive
TP53INP | DRSC22552 | 12 | – | inactive
TP53INP | DRSC25638 | 3 | – | inactive
ND-ACP | DRSC08724 | 8 | – | inactive
CG32196 | DRSC09548 | 10 | – | inactive
nmd | DRSC02856 | 5 | – | inactive
nmd | DRSC27985 | 6 | – | inactive
CG11307 | DRSC11648 | 23 | – | inactive
CG11307 | DRSC26602 | 17 | – | inactive
CG10809 | DRSC09802 | 5 | – | inactive
CG10809 | DRSC29041 | 3 | – | inactive
nolo | DRSC03705 | 8 | – | inactive
nolo | DRSC03719 | 3 | – | inactive
nolo | DRSC03720 | 14 | – | inactive
CG14892 | DRSC15014 | 8 | – | inactive
CG9263 | DRSC03176 | 6 | – | inactive
CG3517 | DRSC15492 | 8 | – | inactive
CG3517 | DRSC26928 | 4 | – | inactive
CR33318 | DRSC22949 | 6 | – | inactive
CG12715 | DRSC19492 | 13 | – | inactive
chn | DRSC06086 | 6 | – | inactive
chn | DRSC29342 | 3 | – | inactive
Vps36 | DRSC09785 | 6 | – | inactive
su(w[a]) | DRSC18840 | 9 | – | inactive
su(w[a]) | DRSC29287 | 2 | – | inactive
Arp1 | DRSC14118 | 23 | – | inactive
Arp1 | DRSC26164 | 10 | – | inactive
E2f1 | DRSC16655 | 5 | – | inactive
E2f1 | DRSC29572 | 6 | – | inactive
CG15330 | DRSC18014 | 12 | – | inactive
alpha-Catr | DRSC04669 | 5 | – | inactive
alpha-Catr | DRSC28046 | 4 | – | inactive
CG14932 | DRSC02414 | 5 | – | inactive
CG14932 | DRSC26333 | 3 | – | inactive
wdb | DRSC14163 | 4 | – | inactive
ocn | DRSC17020 | 8 | – | inactive
CG7881 | DRSC04898 | 10 | – | inactive
CG33296 | DRSC00998 | 1 | – | inactive
CG33296 | DRSC23839 | 17 | – | inactive
Best1 | DRSC16909 | 8 | – | inactive
Best1 | DRSC26475 | 2 | – | inactive
Lpt | DRSC04291 | 5 | – | inactive
Lpt | DRSC04515 | 14 | – | inactive
